Some entries share one result that the patent states for a list of compounds.
biological target: farnesyl protein transferase (Rattus norvegicus, UniProt Q02293+Q04631); assay: FPT IC50 (inhibition of farnesyl protein transferase, in vitro enzyme assay); type: biochemical; conditions: value is the range stated for the group unless single

The chains behind the UniProt entries cited, without tags or fusion partners.
UniProt Q02293, whole entry: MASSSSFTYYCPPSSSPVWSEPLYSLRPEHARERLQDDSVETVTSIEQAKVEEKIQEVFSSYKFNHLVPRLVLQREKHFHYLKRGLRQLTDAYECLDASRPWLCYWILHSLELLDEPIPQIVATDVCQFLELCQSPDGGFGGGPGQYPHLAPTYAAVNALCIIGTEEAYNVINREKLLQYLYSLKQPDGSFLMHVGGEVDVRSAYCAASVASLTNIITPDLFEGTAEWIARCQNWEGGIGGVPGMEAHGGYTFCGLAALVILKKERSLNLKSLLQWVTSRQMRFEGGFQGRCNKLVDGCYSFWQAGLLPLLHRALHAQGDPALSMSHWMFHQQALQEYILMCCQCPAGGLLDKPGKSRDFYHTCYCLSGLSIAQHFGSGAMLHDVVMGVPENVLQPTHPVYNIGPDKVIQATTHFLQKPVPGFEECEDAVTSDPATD

Compound | IC50
CC(C)OC(=O)N1CCN([C@@H]2c3ccc(Cl)cc3CCc3cc(Br)cnc32)C[C@@H]1C(=O)N(CCCn1ccnc1)Cc1ccccc1 [Example 183] | ≤ 6.7 nM
Cc1cn(CCNC(=O)[C@H]2CN(C3c4ccc(Cl)cc4CCc4cc(Br)cnc43)CCN2C(=O)NC2CCCCC2)cn1 (some centres unmarked) [Example 259] | ≤ 6.7 nM
CC(C)(C)OC(=O)N1CCC(C2c3ccc(Cl)cc3CCc3cc(Br)cnc32)CC1C(=O)N(CCCn1ccnc1)Cc1ccccc1 (centres unmarked) [Example 88] | ≤ 6.7 nM
CC(C)OC(=O)N1CCN([C@H]2c3ccc(Cl)cc3CCc3cc(Br)cnc32)C[C@@H]1C(=O)N(CCCn1ccnc1)Cc1ccccc1 [Example 161] | ≤ 6.7 nM
CS(=O)(=O)N1CCN([C@@H]2c3ccc(Cl)cc3CCc3cc(Br)cnc32)C[C@@H]1C(=O)N(CCCn1ccnc1)Cc1ccccc1 (single isomer, unassigned) [Example 174] | ≤ 6.7 nM
Cc1nccn1CCCN(Cc1ccccc1)C(=O)[C@H]1CN(C2c3ccc(Cl)cc3CCc3cc(Br)cnc32)CCN1C(=O)OC(C)(C)C (single isomer, unassigned) [Example 349] | ≤ 6.7 nM
CC(C)(C)OC(=O)N1CCN(C2c3ccc(Cl)cc3CCc3cc(Br)cnc32)C[C@@H]1C(=O)NCCCn1ccnc1NC(=O)C(F)(F)F (some centres unmarked) [Example 106] | ≤ 6.7 nM
Cc1cn(CCCN(Cc2cccc(Cl)c2)C(=O)[C@H]2CN([C@H]3c4ccc(Cl)cc4CCc4cccnc43)CCN2C(=O)OC2CCCCC2)cn1 [Example 322] | ≤ 6.7 nM
O=C([C@H]1CN([C@H]2c3ccc(Cl)cc3CCc3cc(Br)cnc32)CCN1C(=O)NC1CCCCC1)N(CCCn1ccnc1)Cc1ccccc1 [Example 128] | ≤ 6.7 nM
O=C(NC1CCCCC1)OCc1nccn1CCNC(=O)[C@H]1CN(C2c3ccc(Cl)cc3CCc3cc(Br)cnc32)CCN1C(=O)NC1CCCCC1 (some centres unmarked) [Example 275] | ≤ 6.7 nM
CC(C)OC(=O)N1CCN([C@@H]2c3ccc(Cl)cc3CCc3cccnc32)C[C@@H]1C(=O)N(CCCn1ccnc1)Cc1ccc(F)cc1 [Example 205] | ≤ 6.7 nM
Cc1cn(CCCN(Cc2ccnc(O)c2)C(=O)[C@H]2CN([C@H]3c4ccc(Cl)cc4CCc4cccnc43)CCN2C(=O)OC2CCCCC2)cn1 (single isomer, unassigned) [Example 319] | ≤ 6.7 nM
O=C(NCCCn1ccnc1)C1CN(C2c3ccc(Cl)cc3CCc3cc(Br)cnc32)CCN1C(=O)NC1CCNCC1 (centres unmarked) [Example 72 Step B] | ≤ 6.7 nM
O=C([C@H]1CN([C@H]2c3ccc(Cl)cc3CCc3cccnc32)CCN1C(=O)OC1CCCC1)N(CCCn1ccnc1)Cc1ccccc1 [Example 192] | ≤ 6.7 nM
O=C([C@H]1CN([C@H]2c3ccc(Cl)cc3CCc3cc(Br)cnc32)CCN1C(=O)C1CCC1)N(CCCn1ccnc1)Cc1ccccc1 [Example 180] | ≤ 6.7 nM
Cc1cn(CCCN(Cc2ccc[n+]([O-])c2)C(=O)[C@H]2CN([C@H]3c4ccc(Cl)cc4CCc4cccnc43)CCN2C(=O)OC2CCCCC2)cn1 (single isomer, unassigned) [Example 330] | ≤ 6.7 nM
Cc1cn(CCCN(Cc2ccccc2)C(=O)[C@H]2CN(C3c4ccccc4CCc4cccnc43)CCN2C(=O)OC2CCCCC2)cn1 (single isomer, unassigned) [Example 372] | ≤ 6.7 nM
Cc1cn(CCCN(Cc2ccccc2)C(=O)[C@H]2CN([C@H]3c4ccc(Cl)cc4CCc4cccnc43)CCN2C(=O)OC(C)C)cn1 [Example 200] | ≤ 6.7 nM
Cc1ncn(CCCN(Cc2ccccc2)C(=O)[C@H]2CN([C@H]3c4ccc(Cl)cc4CCc4cccnc43)CCN2C(=O)OC2CCCCC2)c1C (single isomer, unassigned) [Example 326] | ≤ 6.7 nM
Cc1cn(CCCN(Cc2ccccc2)C(=O)[C@H]2CN(C3c4ccc(Cl)cc4CCc4cc(Br)cnc43)CCN2C(=O)OC2CCCCC2)c(C)n1 (single isomer, unassigned) [Example 375] | ≤ 6.7 nM

Compound | IC50
CC(C)(C)OC(=O)N1CCN(C2c3ccc(Cl)cc3CCc3cc(Br)cnc32)C[C@@H]1C(=O)N(CCCn1ccnc1)Cc1cccc(O)c1 (some centres unmarked) [Example 118] | ≤ 6.7 nM
CC(C)NC(=O)N1CCN([C@H]2c3ccc(Cl)cc3CCc3cc(Br)cnc32)C[C@@H]1C(=O)N(CCCn1ccnc1)Cc1ccccc1 [Example 131] | ≤ 6.7 nM
O=C([C@H]1CN([C@H]2c3ccc(Cl)cc3CCc3cccnc32)CCN1C(=O)OC1CCCC1)N(CCCn1ccnc1CO)Cc1ccccc1 [Example 210] | ≤ 6.7 nM
NC(=O)N1CCC([C@H]2c3ncc(Br)cc3CCc3cc(Cl)cc(Br)c32)CC1C(=O)NCCCn1ccnc1 (some centres unmarked) [Example 250] | ≤ 6.7 nM
CC(C)(C)OC(=O)N1CCN(C2c3ccc(Cl)cc3CCc3cc(Br)cnc32)C[C@@H]1C(=O)N(CCCn1ccnc1)Cc1ccc(F)cc1 (some centres unmarked) [Example 115] | ≤ 6.7 nM
CCN(CCCn1ccnc1)C(=O)[C@H]1CN(C2c3ccc(Cl)cc3CCc3cc(Br)cnc32)CCN1C(=O)NC1CCCCC1 (some centres unmarked) [Example 111] | ≤ 6.7 nM
Cc1nccn1CCNC(=O)[C@H]1CN(C2c3ccc(Cl)cc3CCc3cc(Br)cnc32)CCN1S(=O)(=O)Cc1ccccc1 (single isomer, unassigned) [Example 279] | ≤ 6.7 nM
CCCCS(=O)(=O)N1CCN([C@H]2c3ccc(Cl)cc3CCc3cc(Br)cnc32)C[C@@H]1C(=O)N(CCCn1ccnc1)Cc1ccccc1 (single isomer, unassigned) [Example 177] | ≤ 6.7 nM
CN(C)C(=O)N1CCN([C@H]2c3ccc(Cl)cc3CCc3cc(Br)cnc32)C[C@@H]1C(=O)N(CCCn1ccnc1)Cc1ccccc1 [Example 157] | ≤ 6.7 nM
CC(C)(C)OC(=O)N1CCN([C@H]2c3ccc(Cl)cc3CCc3cc(Br)cnc32)C[C@@H]1C(=O)N(CCCn1ccnc1)Cc1cccnc1 [Example 206] | ≤ 6.7 nM
CC(C)(C)NC(=O)OCc1nccn1CCCNC(=O)[C@H]1CN(C2c3ccc(Cl)cc3CCc3cc(Br)cnc32)CCN1C(=O)NC(C)(C)C (some centres unmarked) [Example 272] | ≤ 6.7 nM
CN(CCCn1ccnc1)C(=O)[C@H]1CN(C2c3ccc(Cl)cc3CCc3cc(Br)cnc32)CCN1C(=O)NC1CCCCC1 (some centres unmarked) [Example 110] | ≤ 6.7 nM
CC(C)(C)NC(=O)N1CCN([C@H]2c3ccc(Cl)cc3CCc3cc(Br)cnc32)C[C@@H]1C(=O)NCCC(C)(C)n1ccnc1 [Example 10] | ≤ 6.7 nM
CCCNC(=O)N1CCN([C@@H]2c3ccc(Cl)cc3CCc3cc(Br)cnc32)C[C@@H]1C(=O)N(CCCn1ccnc1)Cc1ccccc1 [Example 134] | ≤ 6.7 nM
CC(C)(C)OC(=O)N1CCN([C@@H]2c3ccc(Cl)cc3CCc3cc(Br)cnc32)C[C@@H]1C(=O)N(CCCn1cnc2ccccc21)Cc1ccccc1 [Example 354] | ≤ 6.7 nM
Cc1nccn1CCNC(=O)[C@H]1CN(C2c3ccc(Cl)cc3CCc3cc(Br)cnc32)CCN1C(=O)Nc1ccc(Cl)cc1 (some centres unmarked) [Example 255] | ≤ 6.7 nM
Cc1nccn1CCCN(Cc1ccccc1)C(=O)[C@H]1CN([C@@H]2c3ccc(Cl)cc3CCc3cccnc32)CCN1C(=O)OC1CCCCC1 (single isomer, unassigned) [Example 313] | ≤ 6.7 nM
CC(C)(C)OC(=O)N1CCC(C2c3ncc(Br)cc3CCc3cc(Cl)cc(Br)c32)CC1C(=O)N(CCCn1ccnc1)Cc1ccccc1 (centres unmarked) [Example 251] | ≤ 6.7 nM
Cc1cn(CCCN(CCc2ccccc2)C(=O)[C@H]2CN(C3c4ccc(Cl)cc4CCc4cc(Br)cnc43)CCN2C(=O)OC(C)(C)C)cn1 (single isomer, unassigned) [Example 347] | ≤ 6.7 nM

same assay, conditions: value is the range stated for the group unless single, listed as 88 (Isomer A)

Compound | IC50
CC(C)(C)OC(=O)N1CCC(C2c3ccc(Cl)cc3CCc3cc(Br)cnc32)CC1C(=O)N(CCCn1ccnc1)Cc1ccccc1 (centres unmarked) [Example 88] | ≤ 2.7 nM

same assay, conditions: value is the range stated for the group unless single, listed as 93 (Isomer D)

Compound | IC50
CC(C)(C)OC(=O)N1CCC(C2c3ccc(Cl)cc3CCc3cc(Br)cnc32)CC1C(=O)N(CCCn1ccnc1)Cc1ccccc1 (centres unmarked) [Example 93] | ≤ 2.7 nM
